Earlier results, collected in patent US11993576B2, “N-benzyl-N-arylsulfonamide derivative and preparation and use thereof” (Hangzhou Yirui Pharmaceutical Technology Co., Ltd, priority 2019, dated 2024).
Some of these results come from one statement about several compounds together. At least one compound was matched to its structure with a doubt left.

Tested on: psoriasis
Settings: Phase I/II clinical trials, humans; cited from earlier work

Q: With `O=c1ccc2c(OCCCCOc3ccccc3)c3ccoc3cc2o1` [PAP-1] as the molecule, how does the “rate of improvement of psoriasis symptoms” value read?
A: more than 90%
